Paper PMC5418573

Key:
Assay in all cases: fluorescence anisotropy
[1] = target: T1, PolB1 (Dpo1) (Sulfolobus solfataricus) (UniProt P26811); conditions: pH 8; 10 mM Tris pH 8 or pH 6, 100 mM NaCl, 10 nM 6-FAM primer-template, polymerase 0.78-200 nM, 50 °C 10 min (PBP2 alone: 1x TBS); recombinant protein; label: 6-FAM 5' on strand 1
T1 sequence (looked up, limits assumed): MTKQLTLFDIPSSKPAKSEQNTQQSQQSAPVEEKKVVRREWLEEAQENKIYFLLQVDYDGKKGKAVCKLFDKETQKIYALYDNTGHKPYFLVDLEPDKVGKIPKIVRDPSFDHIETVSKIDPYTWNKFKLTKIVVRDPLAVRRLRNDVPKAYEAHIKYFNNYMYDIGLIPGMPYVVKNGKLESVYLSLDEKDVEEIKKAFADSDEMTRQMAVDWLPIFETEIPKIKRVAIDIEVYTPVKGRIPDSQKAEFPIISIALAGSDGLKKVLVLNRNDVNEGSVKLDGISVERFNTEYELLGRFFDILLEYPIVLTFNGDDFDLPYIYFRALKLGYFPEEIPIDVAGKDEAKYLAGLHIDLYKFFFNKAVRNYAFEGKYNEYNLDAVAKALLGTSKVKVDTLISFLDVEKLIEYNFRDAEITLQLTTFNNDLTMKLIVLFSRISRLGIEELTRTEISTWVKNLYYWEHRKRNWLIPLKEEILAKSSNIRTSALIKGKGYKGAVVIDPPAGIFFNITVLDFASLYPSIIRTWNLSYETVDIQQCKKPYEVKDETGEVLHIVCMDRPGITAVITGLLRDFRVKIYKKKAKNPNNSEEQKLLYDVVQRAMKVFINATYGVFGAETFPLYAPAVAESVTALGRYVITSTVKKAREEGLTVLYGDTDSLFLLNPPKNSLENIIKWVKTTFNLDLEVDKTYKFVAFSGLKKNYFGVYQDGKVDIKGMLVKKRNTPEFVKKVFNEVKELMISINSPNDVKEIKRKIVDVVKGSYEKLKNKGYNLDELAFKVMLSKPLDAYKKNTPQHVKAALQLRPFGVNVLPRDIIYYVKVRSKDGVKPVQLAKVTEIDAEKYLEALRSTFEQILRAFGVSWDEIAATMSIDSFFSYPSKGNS

[2] = test system: PolB1 (Dpo1) + PBP1 + PBP2; conditions: pH 8; 10 mM Tris pH 8 or pH 6, 100 mM NaCl, 10 nM 6-FAM primer-template, polymerase 0.78-200 nM, 50 °C 10 min (PBP2 alone: 1x TBS); recombinant protein; label: 6-FAM 5' on strand 1
[3] = test system: PolB1 (Dpo1) + PBP1ΔC + PBP2; conditions: pH 8, inhibition depends on the acidic tail; 10 mM Tris pH 8 or pH 6, 100 mM NaCl, 10 nM 6-FAM primer-template, polymerase 0.78-200 nM, 50 °C 10 min (PBP2 alone: 1x TBS); recombinant protein; label: 6-FAM 5' on strand 1

“CAGGTGGGCTGCGGTCACGTTGTCAGAGGTC / GTGTAATGATGCCATGCGACCTCTGACAACGTGACCGCAGCCCACCTG [FA primer-template junction (FA_label/FA_template)]”: binds [1]; binds more weakly [2]; binds [3].

For at least one entry, the source does not settle the construct or the ends of the probe. For part of these data: The comparison behind a weaker result is the experiment's own reference, which may not be listed here. For part of these data: At least one verdict rests on a figure or table, not on a statement of the authors. For part of these data: Tags and fusion partners may be left off the protein sequences shown.
